Results taken from article PMC10041115, “Cryo-EM structure of the four-subunit Rhodobacter sphaeroides cytochrome bc1 complex in styrene maleic acid nanodiscs” (Proceedings of the National Academy of Sciences of the …, 2023).
These are yes or no findings as the source states them, for the method shown. In cells and extracts the contact can be indirect. Here binding means that the protein was enriched with, or labelled near, the bait; the list need not be complete. Where a sequence is shown, tags or fusion partners need not be part of it.

Chains of the proteins cited; added tags and fusions are not shown. Lines headed by an entry give the natural chain unless they say otherwise; changes in a name come on top.
UniProt Q3J2Z2: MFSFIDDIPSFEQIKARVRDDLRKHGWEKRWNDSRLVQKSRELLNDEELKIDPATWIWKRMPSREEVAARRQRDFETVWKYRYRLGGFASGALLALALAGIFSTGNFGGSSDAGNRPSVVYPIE

T1: cytochrome c1 subunit of the Rhodobacter sphaeroides cytochrome bc1 complex, His10-tagged (Rhodobacter sphaeroides) (UniProt Q02760)
T1 sequence: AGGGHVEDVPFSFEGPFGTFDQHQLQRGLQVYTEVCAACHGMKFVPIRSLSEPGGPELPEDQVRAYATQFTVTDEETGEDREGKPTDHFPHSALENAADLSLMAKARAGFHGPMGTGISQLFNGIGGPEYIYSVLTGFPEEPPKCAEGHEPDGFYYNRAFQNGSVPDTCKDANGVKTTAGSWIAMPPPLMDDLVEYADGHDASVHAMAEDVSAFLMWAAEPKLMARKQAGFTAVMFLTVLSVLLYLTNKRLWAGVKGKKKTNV


Biological target: T1, cytochrome c1 subunit of the Rhodobacter sphaeroides cytochrome bc1 complex, His10-tagged (Rhodobacter sphaeroides)
Assay: affinity purification with mass spectrometry

binding	Molecule
binds	subunit IV of the Rhodobacter sphaeroides cytochrome bc1 complex (from UniProt Q3J2Z2)
binds	Rieske iron-sulfur protein subunit of the Rhodobacter sphaeroides cytochrome bc1 complex (natural protein, UniProt Q02762 1-187, looked up, also called Rieske subunit; Rieske ISP; source: endogenous, R. sphaeroides grown photosynthetically; SMA-solubilised membranes, purified in native nanodiscs (Ni-NTA, sucrose gradient, SEC)) MSNAEDHAGTRRDFLYYATAGAGAVATGAAVWPLINQMNPSADVQALASIFVDVSSVEPGVQLTVKFLGKPIFIRRRTEADIELGRSVQLGQLVDTNARNANIDAGAEATDQNRTLDEAGEWLVMWGVCTHLGCVPIGGVSGDFGGWFCPCHGSHYDSAGRIRKGPAPENLPIPLAKFIDETTIQLG
binds	cytochrome b subunit of the Rhodobacter sphaeroides cytochrome bc1 complex (protein, UniProt Q02761 1-445) MSGIPHDHYEPRTGIEKWLHSRLPIVALAYDTIMIPTPRNLNWMWIWGVVLAFCLVLQIVTGIVLAMHYTPHVDLAFASVEHIMRNVNGGFMLRYLHANGASLFFIAVYLHIFRGLYYGSYKAPREVTWIVGMLIYLAMMATAFMGYVLPWGQMSFWGATVITGLFGAIPGIGHSIQTWLLGGPAVDNATLNRFFSLHYLLPFVIAALVAIHIWAFHSTGNNNPTGVEVRRTSKAEAQKDTVPFWPYFIIKDVFALAVVLLVFFAIVGFMPNYLGHPDNYIEANPLSTPAHIVPEWYFLPFYAILRAFTADVWVVQIANFISFGIIDAKFFGVLAMFGAILVMALVPWLDTSPVRSGRYRPMFKIYFWLLAADFVILTWVGAQQTTFPYDWISLIASAYWFAYFLVILPILGAIEKPVAPPATIEEDFNAHYSPATGGTKTVVAE
